At least one structure is not confirmed: it was looked up by name or label, or the drawing left a doubt. Some results were stated once for a whole list of compounds, not compound by compound.
Experiments:
LS174T cells = test: Seahorse oxygen consumption rate assay; assay type: cell-based; details: rotenone/antimycin A replaced with compound
Experimental: Seahorse oxygen consumption rate assay-Seahorse assays were conducted in accordance with a published protocol (50). Mitochondrial bioenergetic measurements were performed using the Seahorse XFe96 Extracellular Flow Analyzer (Agilent Technologies, Santa Clara, CA, USA) to measure the oxygen consumption rate (OCR) in different respiratory states. 2.5×10^4 LS174T cells in 80 μL medium were seeded in XF96 Cell Culture microplate and cultured overnight. Then cell culture media were replaced with Seahorse XF modified media before cells were treated. […] To test whether compounds were ETC complex I or III inhibitors, rotenone and antimycin A were replaced with DMSO, or compounds in DMSO solution.
The Seahorse assays were performed in compliance with a pre-announced procedure (41). Oxygen consumption was measured using the Seahorse XFe96 Extracellular Flow Analyzer (Agilent Technologies, Santa Clara, CA, USA). 2.5×10^4 LS174T cells were seeded in XF96 Cell Culture microplate in 80 μL culture medium and incubated overnight. On the following day, the cell culture media were exchanged with Seahorse XF modified media. 1.0 μmol/L oligomycin, 1.0 μmol/L FCCP, and a mixture of 1.0 μmol/L rotenone and 1.0 μmol/L antimycin A were sequentially added during the measurements. […]

mitochondrial complex I = test: Mitochondrial ETC complex activity using PMP-permeabilized cells; assay type: cell-based
Experimental: Mitochondrial ETC complex activity measurements using PMP-Measurements of mitochondrial ETC complex activity were performed using the Agilent Seahorse Assay with XF PMP (Agilent, Santa Clara, CA) according to the manufacturer's instructions. Mitochondrial assay solution (MAS) was prepared with 220 mM mannitol, 70 mM sucrose, 10 mM KH2PO4, 5 mM MgCl2, 2 mM HEPES, 1 mM EGTA, and 0.2% (w/v) fatty acid free BSA. Cells were gen Ly washed with MAS and cell media was replaced with MAS supplemented with 4 mM adenosine diphosphate (ADP), 10 mM pyruvate, and 1 nM PMP. After calibration, the test was prompμLy carried out by measuring baseline with two cycles of 0.5 min mixing, 0.5 min waiting, and 2 min measuring. Following the baseline measurements, DMSO, test compounds or 2 μM rotenone, 10 mM succinate, 2 μM antimycin A, and a combination of 10 mM ascorbate and 100 μM TMPD were sequentially injected. The experiment data were then normalized to cell counts using Biotek Cytation 1 (BioTek Instruments, Winooski, VT, USA).
Mitochondrial ETC complex activity was measured using the Agilent Seahorse Assay with XF permeabilizer (PMP; Agilent) in compliance with the manufacturer's protocol. […] Following calibration, the baseline OCR was measured with cycles of 0.5-minute mixing, 0.5-minute waiting, and 2-minute measuring to perform the test. […]

[1] = tested on: AMPK, mTOR and Wnt signaling; test: Western blotting of cell signaling pathways in CRC cells; assay type: cell-based; details: for AMPK phosphorylation (activation): 3 μM, LS174T CRC cells
Experimental: Western blotting-Western blotting was carried out following previously reported procedures (50). Cells were incubated in 6-well plates and were treated with either DMSO or compounds dissolved in DMSO at indicated concentrations. Cells were lysed in 500 μl of lysis buffer: 50 mM HEPES, 100 mM NaCl, 2 mM EDTA, 1% (v/v) glycerol, 50 mM NaF, 1 mM Na3VO4, 1% (v/v) Triton X-100, with protease inhibitors (Sigma, P8340). The cell lysates were centrifuged (18,000×g, 10 min) and then 6× protein loading buffer was added to the suppernatants. The samples were boiled for 3 min and analyzed by standard Western blotting methods with the indicated antibodies.
Western blotting was performed as previously reported procedures (41). Cells were split into 6-well plates and incubated for 24 hours. Either DMSO or compounds dissolved in DMSO at indicated concentrations were added to each well for another 24 hours. Cells were lysed in 500 μL of lysis buffer containing 50 mmol/L HEPES, 100 mmol/L NaCl, 2 mmol/L EDTA, 1% (v/v) glycerol, 50 mmol/L NaF, 1 mmol/L Na3VO4, 1% (v/v) Triton X-100, and protease inhibitors (Sigma, P8340). Cell lysates were centrifuged for 10 minutes (18,000×g), and the supernatants were mixed with 6×protein loading buffer and boiled for 3 minutes. The samples were analyzed by standard Western blotting methods using the appropriate antibodies.

mouse CRC organoids = test: Colon cancer organoids; assay type: cell-based; details: Apcf/+/KrasLSL-G12D/Vil-Cre mouse tumor organoids
LS174T xenografts = LS174T xenografts in SCID mice; assay type: in vivo, mouse; details: BAY-876 3 mg/kg/day oral, DBI-1 40 mg/kg/day i.p., two weeks
Experimental: In vivo evaluation of anti-cancer activity in LS174T xenografts—The mouse studies were conducted with the approval of the University of Kentucky Institutional Animal Care and Use Committee (2020-3531). All methods were carried out in compliance with the relevant guidelines and regulations according to protocols. The LS174T cells in exponential growth phase were trypsinized and resuspended in 50% Matrigel (Corning, Glendale, Arizona). Cells (1.2×10^6) were subcutaneously injected on the lower flanks of severe combined immunodeficient mice. The tumor volumes were calculated based on the formula Length×width^2/2. When tumors reached an average volume of 100 mm^3, the mice were divided into control and treatment groups (3 male and 3 female mice/group, two tumors on each mouse). After tumors were established, BAY-876 was given to the mice by gavage feeding to the BAY-876 group at the dose of 3 mg/kg/day. DBI-1 was daily intraperitoneally (i.p.) administered to the DBI-1 group at dose of 40 mg/kg mouse body weight. […] Tumors and mouse weights were measured every three days and the experiment was stopped at day 12. […] Tumor sections were analyzed with H&E and Ki-67 staining at Markey Cancer Center's Biospecimen Procurement and Translational Pathology Shared Resource Facility (BPTP SRF).

## CN(C)CCN(C)CCCCOc1ccc2c(=O)c(-c3ccc(Br)cc3)coc2c1 [DBI-1, 3-(4-Bromophenyl)-7-(4-((2-(dimethylamino)ethyl)(methyl)amino)butoxy)-4H-chromen-4-one]
LS174T cells
  oxygen consumption rate (OCR): inhibited the OCR to a similar extent as rotenone/antimycin
Mitochondrial complex I; ETC complex-specific inhibitors and PMP-permeabilized cells
  ETC complex inhibited (conclusion of Seahorse assays): complex I inhibitor
Mitochondrial complex I; PMP-permeabilized CRC cells
  pyruvate/NADH-linked respiration: inhibited pyruvate/NADH-linked respiration relative to DMSO
[1]; 3 μM alone, LS174T cells, 24 hours
  effects on AMPK (pAMPK, pACC), mTOR (p70S6K, pS6) and Wnt (Axin2, c-Myc) signaling: inhibited the expression of Wnt target genes (Axin2 and c-Myc), activated the AMPK signaling (pAMPK and pACC), and inhibited the mTOR signaling (p70S6K and pS6)
[1]
  AMPK phosphorylation (activation): induced AMPK phosphorylation (activation)
Mouse CRC organoids
  organoid growth: inhibited organoid growth in a dose-dependent manner
LS174T xenografts
  tumor growth: inhibited tumor growth

## O=c1c(-c2ccc(Br)cc2)coc2cc(OCCCCCCCCN3CCN(CCO)CC3)ccc12 [DBI-2, 3-(4-bromophenyl)-7-((8-(4-(2-hydroxyethyl)piperazin-1-yl)octyl)oxy)-4H-chromen-4-one]
[1]
  AMPK phosphorylation (activation): induced AMPK phosphorylation (activation)

## O=c1c(-c2ccc(Br)cc2)coc2cc(OCCCCN3CCNCC3)ccc12 [DBI-3, 3-(4-bromophenyl)-7-(4-(piperazin-1-yl)butoxy)-4H-chromen-4-one]
[1]
  AMPK phosphorylation (activation): induced AMPK phosphorylation (activation)

## O=c1c(-c2ccc(Br)cc2)coc2cc(OCCN3CCNCC3)ccc12 [DBI-4, 3-(4-bromophenyl)-7-(2-(piperazin-1-yl)ethoxy)-4H-chromen-4-one]
[1]
  AMPK phosphorylation (activation): induced AMPK phosphorylation (activation)

## O=c1c(-c2ccc(Cl)c(Cl)c2)coc2cc(OCCN3CCNCC3)ccc12 [DBI-5, 3-(3,4-dichlorophenyl)-7-(2-(piperazin-1-yl)ethoxy)-4H-chromen-4-one]
[1]
  AMPK phosphorylation (activation): induced AMPK phosphorylation (activation)

## O=c1c(-c2ccc(Cl)c(Cl)c2)coc2cc(OCCN3CCN(CCO)CC3)ccc12 [DBI-6, 3-(3,4-dichlorophenyl)-7-(2-(4-(2-hydroxyethyl)piperazin-1-yl)ethoxy)-4H-chromen-4-one]
[1]
  AMPK phosphorylation (activation): induced AMPK phosphorylation (activation)

— patent publication US20250042880A1 (UNIVERSITY OF KENTUCKY RESEARCH FOUNDATION, priority 2021, published 2025)
